Measurements reported in patent US20220389097A1 (Genentech, published 2022).
These are yes or no findings as the source states them, for the method shown. Some binding calls cover weakened binding; strength is not graded here. Where no end group is shown, it is not given here.

T1: hTREM2 stalk peptide residues 129-175 (human, biotinylated)
T1 construct: also called human TREM2 stalk peptide
T1 peptide: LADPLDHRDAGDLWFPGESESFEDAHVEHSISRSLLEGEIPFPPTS

T2: TREM2 peptide fragment residues 149-158 (human)
T2 sequence (peptide): SFEDAHVEHS


Assays:
[1] = target: T1, hTREM2 stalk peptide residues 129-175; assay: peptide ELISA, IgG
[2] = target: T2, TREM2 peptide fragment residues 149-158 (human); assay: peptide ELISA, IgG

Binder | binding [1] | binding [2]
Para.09 IgG with the 3.18E5 light chain (antibody, V domains shown) VH: EVQLVETGGSLVQPGKSLRLTCATSGFPFSNVWLHWVRQSPEKHPEWVAHIKAKSDNYATYYAESVKGRFTISRDDSKSSVFLQMNSLKEEDTAIYYCTDILEYWGQGTLVTVSS VL: DTVLTQAPLSVSVTPGESASISCRSNKSLLGIRDITSLYWYLQKPGKSPQLLIYRMSNLASGVPDRFSGSGSETDFTLKISEVETEDVGVYYCAQFLRYPYTFGPGTKLELK | binds | binds
Para.09 IgG with the 3.10C2 light chain (antibody, V domains shown) VH: EVQLVETGGSLVQPGKSLRLTCATSGFPFSNVWLHWVRQSPEKHPEWVAHIKAKSDNYATYYAESVKGRFTISRDDSKSSVFLQMNSLKEEDTAIYYCTDILEYWGQGTLVTVSS VL: DTVLTQAPLSLSVTPGESASISCRSSKSLLGVRDITSLYWYLQKPGKSPQLLIYRMSNLASGVPDRFSGSGSETDFTLKISEVETEDVGVYYCAQFLRYPYTFGPGTKLELK | binds | binds
Para.09 IgG with the 3.50G1 light chain (antibody, V domains shown) VH: EVQLVETGGSLVQPGKSLRLTCATSGFPFSNVWLHWVRQSPEKHPEWVAHIKAKSDNYATYYAESVKGRFTISRDDSKSSVFLQMNSLKEEDTAIYYCTDILEYWGQGTLVTVSS VL: DTVLTQAPLSVSVTPGESASISCRSNKSLLGIRDITSLYWFLQKPGKSPQLLIYRMSNLASGVPDRFSGSGSETDFTLKISEVETEDVGVYYCAQFLRYPYTFGPGTKLELQ | binds | binds
Para.09 IgG with the 3.27H7 light chain (antibody, V domains shown, also called rat Para.09; Para.09-L27H7) VH: EVQLVETGGSLVQPGKSLRLTCATSGFPFSNVWLHWVRQSPEKHPEWVAHIKAKSDNYATYYAESVKGRFTISRDDSKSSVFLQMNSLKEEDTAIYYCTDILEYWGQGTLVTVSS VL: DVVLTQAPLSVSVTPGESASISCRSSRSLLTSKGITSLYWYLQKPGMSPHLLIYRMSNLASGIPDRFSGSGSETDFTLKISEVEPEDVGVYYCAQFLVYPYTFGAGTKLELK | binds | binds
3.10C2 IgG (rat variable regions; captured by anti-CH1 or anti-human Fab chips) (antibody, V domains shown, also called parental 3.10C2 clone; 3.10C2 control) VH: EVQLVETGGSLVQPGKSLKLTCATSGFPFSNVWMHWVRQSPEKQLEWIAHIKAKSDNYATYYAESVKGRFTISRDDSKTSIYLQMNSLKEDDTAIYYCTGLDYWGQGVMVTVSS VL: DTVLTQAPLSLSVTPGESASISCRSSKSLLGVRDITSLYWYLQKPGKSPQLLIYRMSNLASGVPDRFSGSGSETDFTLKISEVETEDVGVYYCAQFLRYPYTFGPGTKLELK | – | binds
